Drawing on PMC9319012, this text covers binding for 3 substances.

Protein sequences, listed by entry. Tags and fused reporters are not part of them.
UniProt Q04206: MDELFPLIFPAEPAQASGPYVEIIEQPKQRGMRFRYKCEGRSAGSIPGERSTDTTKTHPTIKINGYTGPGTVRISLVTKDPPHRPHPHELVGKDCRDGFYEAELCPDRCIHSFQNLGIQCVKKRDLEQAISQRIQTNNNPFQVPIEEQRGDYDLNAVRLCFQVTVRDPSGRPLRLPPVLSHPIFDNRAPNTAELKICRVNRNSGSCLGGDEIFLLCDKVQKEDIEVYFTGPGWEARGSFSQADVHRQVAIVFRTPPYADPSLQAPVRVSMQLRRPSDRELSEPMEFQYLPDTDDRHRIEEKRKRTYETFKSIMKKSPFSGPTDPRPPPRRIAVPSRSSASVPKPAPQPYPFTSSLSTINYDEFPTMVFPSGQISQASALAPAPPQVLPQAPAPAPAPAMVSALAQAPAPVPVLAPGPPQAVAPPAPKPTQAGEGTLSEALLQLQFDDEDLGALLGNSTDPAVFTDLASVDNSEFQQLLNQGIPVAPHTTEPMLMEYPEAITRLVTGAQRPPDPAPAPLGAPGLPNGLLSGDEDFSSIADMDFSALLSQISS
UniProt O15527: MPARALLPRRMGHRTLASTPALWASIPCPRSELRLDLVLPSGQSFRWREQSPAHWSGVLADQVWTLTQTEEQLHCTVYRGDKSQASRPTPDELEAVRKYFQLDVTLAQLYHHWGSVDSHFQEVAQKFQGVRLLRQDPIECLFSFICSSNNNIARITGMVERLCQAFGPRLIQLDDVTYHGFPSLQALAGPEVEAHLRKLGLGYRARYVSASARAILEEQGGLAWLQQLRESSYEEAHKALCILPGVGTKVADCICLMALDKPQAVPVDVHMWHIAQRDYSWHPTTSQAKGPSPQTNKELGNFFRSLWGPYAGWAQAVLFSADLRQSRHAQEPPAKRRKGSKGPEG

The target of assay [1] is RELA proto-oncogene (65 kDa subunit) (human (endogenous in hSAECs)) (UniProt Q04206). The experiment in a line: co-IP; lysates of mock- or RSV-infected hSAECs (24 h, MOI = 1); 10 mM HEPES pH 7.4, 50 mM NaCl, 1% Triton X-100, 10% glycerol; IP with anti-OGG1 or anti-RELA Ab overnight at 4 °C, protein G Dynabeads; immunoblot with anti-RELA or anti-OGG1. (In general: Immunoblotting shows a protein as a band on a membrane.)

Assay [2] deals with 8-oxoguanine DNA glycosylase1 (human (endogenous in hSAECs)) (UniProt O15527). The description is as above.
Assay [3] shares this target. The experiment in a line: proximity ligation; Duolink PLA with anti-RelA and anti-OGG1 antibodies in control or RSV-infected hSAECs; red foci by fluorescence microscopy.
In assay [4] the target is FLAG-tagged OGG1 (UniProt O15527). Description: co-IP; lysates of FLAG-OGG1-expressing A549 cells over a time course of RSV infection; capture on anti-FLAG M2 magnetic beads; immunoblot with anti-phospho-Ser536 RELA.

Results are given in words; binding and its absence hold for the method and conditions named. In cells and extracts the contact can be indirect. Some results given as binding are weak or reduced against the parent protein; the word gives no strength.

Take “8-oxoguanine DNA glycosylase1 (from UniProt O15527 1-345) (enzyme)”: the binding entry in assay [1] is recorded as “binds”.

For “RELA proto-oncogene (65 kDa subunit) (from UniProt Q04206 1-551)”, the binding entry in assay [2] and in assay [3] was “binds” each time.

For “Ser 536-phosphorylated RELA (from UniProt Q04206 1-551)”, the binding entry in assay [4] is listed as “binds”.
